# Percent effect of library compounds

The chains behind the UniProt entries cited, without tags or fusion partners. Residues count along the entry.
UniProt A4I591, 1-473: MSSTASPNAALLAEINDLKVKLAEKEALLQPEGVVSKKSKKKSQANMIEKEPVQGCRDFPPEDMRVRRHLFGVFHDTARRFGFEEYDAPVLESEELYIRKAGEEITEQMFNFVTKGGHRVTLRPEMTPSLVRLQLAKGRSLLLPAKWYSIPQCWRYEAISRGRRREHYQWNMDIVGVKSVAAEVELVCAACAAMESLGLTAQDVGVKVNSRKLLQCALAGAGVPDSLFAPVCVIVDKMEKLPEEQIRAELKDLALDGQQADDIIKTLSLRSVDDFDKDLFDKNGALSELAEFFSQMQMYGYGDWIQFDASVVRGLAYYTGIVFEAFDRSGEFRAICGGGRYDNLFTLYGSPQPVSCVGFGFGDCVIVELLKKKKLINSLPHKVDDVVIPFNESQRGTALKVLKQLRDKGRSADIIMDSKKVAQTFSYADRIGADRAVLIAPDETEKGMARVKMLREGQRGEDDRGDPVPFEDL

Source: ChEMBL document CHEMBL3988442, “University of Dundee, Small-Polar-MMV Screening Library” (2021).

Toxoplasma: 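Assay of Toxoplasma gondii numbers, read through their beta-galactosidase reporter with a colour substrate. Compounds at 10 µM. Higher reads as fewer parasites (inferred from which compounds were picked for retests). About 67,000 compounds were tested under these conditions; 0.38% (about 260) showed 50% or more at least once.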
LiHisRS: 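Histidine-tRNA ligase, Leishmania infantum (UniProt A4I591). Enzyme assay of histidyl-tRNA synthetase; the read-out is not stated. Compounds at 30 µM. Higher reads as stronger inhibition (inferred: compounds with an IC50 in retests scored well above the rest). The assay is labelled LdHisRS but filed under L. infantum. Of about 69,000 compounds tested this way, about 410 (0.6%) reached 50% or more in at least one test.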

Each number is a percent effect as filed.
The controls that fix the scale are not given in the record; negative values are as filed.
Compounds were drawn at random from those tested, without regard to their results.
A dash means the value is not listed here; it may have been measured.

compound | Toxoplasma | LiHisRS
CCn1ccnc1CN(C)c1cc(C2CC2)ncn1 | -0.6215% | 21.98%
c1cnc(N2C[C@@H]3COC[C@]3(COCC3CCCC3)C2)nc1 | - | 16.67%
COc1ccnc(N2CCN(C(=O)CCc3nccs3)CC2)n1 | 0.1154% | 17.31%
CS(=O)(=O)N1CCC2(CC1)CN(CCn1cccn1)C(=O)CO2 | 3.976% | 65.81%
O=C(O)C(F)(F)F.O=C(O)C(F)(F)F.[H][C@@]12CC(COc3ccccn3)C[C@@]1([H])N(Cc1csc(C)n1)CCO2 (stereo partly specified) | 12.47% | -
CC(=O)NCCNC(=O)NCc1ccc(-n2ccc(C(F)(F)F)n2)cc1 | -7.099% | 12%
Cc1ccc(C(=O)N2CCN(CCc3cccs3)CC2)c(=O)[nH]1 | -4.887% | 2.128%
CC(C)Cn1ccnc1CNC(=O)N1CCCC1CN1CCOCC1 (stereo unspecified) | 4.934% | 0%
CCOc1cc(C(=O)NS(=O)(=O)c2cccc(C#N)c2)ccc1OC | 11.37% | -13.39%
c1cc2c(cc1CSCc1noc(C3CC3)n1)OCCO2 | 10.53% | -3.191%
CN(C)S(=O)(=O)N1CCC2(CCCN(Cc3ccc(F)cc3)C2=O)C1 (stereo unspecified) | 9.799% | 15.24%
CCOCC(=O)N1CCC(Oc2ccc(C(F)(F)F)cn2)CC1 | -1.441% | 12.62%
CC1CCc2nc(NS(=O)(=O)c3cnn(C)c3)sc2C1 (stereo unspecified) | -1.724% | 18.09%
COc1ccc(OC)c(C2CCN(C3CCOCC3)C2)c1 (stereo unspecified) | 1.366% | -23.94%
COCC(=O)NCc1cccc(OCCN(C)C2CCOCC2)c1 | -2.402% | 17.81%
O=C(NCCc1nccs1)c1n[nH]c2c1CCC2 | 5.471% | 16.48%
CS(=O)(=O)NCC1Cc2ccccc2O1 (stereo unspecified) | -0.918% | 9.326%
CC(C)Cn1c2c(ccc1=O)CC(N)CC2 (stereo unspecified) | -9.184% | 19.42%
NC1CCCc2c1cnn2-c1cc(F)cc(F)c1 (stereo unspecified) | 20.49% | 5%
CC(C)(C)c1ncc(CNc2ccccc2SCCC(N)=O)s1 | 11.98% | 19.75%
O=C(c1ccccn1)C1CCCN(c2nccc(CCC(F)(F)F)n2)C1 (stereo unspecified) | - | 16.13%
CC(=O)c1c(O)ccnc1C(F)(F)F | -6.169% | 11.76%
CCOC(C)c1noc(CN2CCCNCC2)n1 (stereo unspecified) | 2.711% | 3.03%
CC(C)[C@H]1CN(Cc2ccccc2C#N)C[C@@H]1NC(=O)C1CCOCC1 | -9.433% | 3.797%
CC(=O)NCc1nc(CC(C)C)nn1-c1cccc(C)c1 | -52.61% | 4.301%
Cc1nccc(CNC(=O)N2CCN(Cc3ccccc3)C[C@H]2C)n1 | -6.456% | 19.19%
O=C(c1ncoc1C1CCCO1)N1CCCC2(CCCCC2)C1 (stereo unspecified) | 1.426% | 25.71%
CNc1nc2c(s1)C(c1ccccc1Cl)CC(=O)N2 (stereo unspecified) | 0% | 57.5%
CC(=O)N1CCC2(CCN(Cc3cccc(F)c3)CC2)CC1 | - | 25%
COc1ncc(C2(O)CCN(Cc3cc(F)ccc3F)CC2)c(OC)n1.Cl | -5.372% | -
Cc1noc(C)c1CN1CC[C@@H](OCC2CC2)[C@@H](Cc2ccccc2)C1 | - | 16.79%
Cc1ccc2c(c1)c(Sc1ccccc1)c(CC(=O)O)n2C | 6.909% | -60.44%
Cc1csc(CN(C)C(C)C(=O)N2CCc3ccccc3C2)n1 (stereo unspecified) | 3.071% | 55.84%
Cc1nc(CN2CC[C@H]3[C@H]2CCN3c2nncs2)cs1 | - | 17.54%
CCn1cnnc1CNC(=O)N1CCCCCC1 | -3.138% | 11.5%
CC(=O)N1CCC[C@H]1C(=O)NCCCN(C(C)C)S(C)(=O)=O | -10.71% | 13.92%
Fc1cnc(N2CCCC3(CCN(Cc4cccs4)C3)C2)nc1.O=C(O)C(F)(F)F.O=C(O)C(F)(F)F (stereo unspecified) | -7.824% | -
COCC(=O)N1CCCn2c(CN3CCCCC3)nnc2C1 | - | 1.905%
CCOc1ncccc1C(=O)N1CCCC(n2nc(C)cc2C)C1 (stereo unspecified) | 17.71% | 15.29%
O=C(C1CC1)N1CCc2c(ncnc2N2CCN3CCCC3C2)C1 (stereo unspecified) | 9.071% | 18.6%
Cc1nc(C2(O)CCCNCC2)sc1CCOc1ccccc1F (stereo unspecified) | - | 4.828%
Cc1cc(C)c(CNC(=O)N2CCCC2c2ccccn2)c(=O)[nH]1 (stereo unspecified) | -2.94% | 12.28%
Cn1cc(CN2CC[C@H]3O[C@H](C(=O)Nc4cnccn4)CC[C@H]32)cn1 | - | 24.47%
CCN1CCCC(C)(C(=O)NCc2nncn2CCc2ccccc2)C1 (stereo unspecified) | 16.33% | 16.33%
O=C(O)C(F)(F)F.[H][C@]12C[C@H](C(=O)NC)N(C)[C@@]1([H])CN(S(=O)(=O)c1ccccc1)C2 | -1.794% | -
CCOCCN1CCCC(c2cc(C(N)=O)[nH]n2)C1 (stereo unspecified) | 0.3501% | 9.459%
CCS(=O)(=O)N1CCO[C@H]2[C@H](OCC3CCCC3)CC[C@@H]21 | - | 20.75%
CNC(=O)[C@@H]1C[C@H](N)CN1Cc1cc2cc(C)cc(C)c2[nH]c1=O | 6.788% | 34.38%
Cc1ccc(C(=O)N(CCC#N)Cc2ccccn2)cc1C | 1.512% | 18.75%
O=C(N1CCCC1)N1CCC2(CCN(Cc3ccccn3)C2=O)C1 (stereo unspecified) | - | 0.885%
O=C(c1ccccc1)N(CC1CC1)c1cccnc1 | - | 8.696%
Cc1nc(C)n(CC2CN(CC(=O)NC3CCCC3)CCO2)n1 (stereo unspecified) | 10.3% | 12.17%
CC(C)NC(=O)N1CCC2(CC(=O)N(c3ccsc3)C2)C1 (stereo unspecified) | -30.67% | 15.6%
O=C(O)C(F)(F)F.[H][C@@]12CCCO[C@]1([H])[C@H](NC(=O)c1cnoc1C)CN(C1CCC1)C2 | -36.78% | -
Cn1ccnc1SC1CCc2ccccc2NC1=O (stereo unspecified) | -13.65% | 15%
O=C(Nc1nc2c(s1)CN(S(=O)(=O)C1CC1)CC2)c1c(F)cccc1F | -2.737% | 15.38%
O=C(Cc1ccc(F)cc1)NCCNCC1CNc2ccnn2C1 (stereo unspecified) | -2.77% | 3.846%
CN1CCCCC12CCN(c1nncs1)CC2.O=C(O)C(F)(F)F | 7.336% | -
CCNC(=O)C1CCN(Cc2csc(-c3ccc(C)o3)n2)CC1 | -1.181% | 21.62%
CCCc1noc(CN2CCN(CCO)CC2)n1 | -13.22% | 11.01%
CCCc1nc(N2CCN(CC)CC2)c2c(n1)c(C)nn2CC | 3.012% | 16.04%
CN(Cc1nnc(C2CC2)n1C)C1CCN(CCc2cnn(C)c2)C1 (stereo unspecified) | -18.73% | 1.724%
Cc1nc(O)cc([C@@H]2CN(C(=O)C3CC3)C[C@H]2c2ccccc2F)n1 | 2.714% | -8.451%
O=C(O)C(F)(F)F.[H][C@]12CC[C@@]3(N=C(C)N(CC4CC4)C3=O)[C@@]1([H])CN(Cc1ccc(C)cc1)C2 | -31.08% | -
COc1cccc(S(=O)(=O)CCN2CCCCC2)c1 | -1.762% | 4.854%
O=C(Cn1ccc2cc(Br)ccc21)NCc1ccc(C(=O)O)cc1 | 10.81% | 2.632%
COCCC(=O)N1CCC2(CC1)CC(c1ccccc1)CN(C)C2 (stereo unspecified) | -5.944% | 13.33%
O=C(c1cccc(-n2cccn2)c1)N1CCCOC(CN2CCCC2)C1 (stereo unspecified) | 7.219% | 23.08%
C=C1C(C)(C)[C@H]2CC[C@]1(C(=O)N1CCC(n3cc(CO)nn3)CC1)C2 | - | 19.05%
O=C(C1CNCCO1)N1CCC(c2cc(N3CCCC3)ncn2)CC1 (stereo unspecified) | 1.373% | 32.86%
CNC(=O)[C@H]1C[C@@H]2CN(C(=O)c3ccccn3)C[C@@H]2N1S(C)(=O)=O | - | 5.556%
COCCN(C)c1ccc(NCc2cscn2)nc1 | 1.011% | 42.86%
Cc1nc2n(n1)CC(NCC(=O)Nc1cc(C)on1)CC2 (stereo unspecified) | 4.627% | 3.636%
Cn1nnc2c1C(COCC1CC1)CN(C(=O)[C@H]1CCCO1)C2 (stereo partly specified) | -5.904% | 17.09%
Cc1cc(CN(C)C(=O)c2ccc(Cl)c(N3CCCC3=O)c2)no1 | 6.924% | 10.91%
CC(C)N(CC(N)=O)Cc1csc(C(C)(C)C)n1 | 20.79% | 1.695%
O=C(C(CNCc1cccnc1)c1ccccc1)N1CCOCC1 (stereo unspecified) | -3.246% | 10.59%
O=C(O)C(F)(F)F.O=S1(=O)c2ccccc2C2(CCN(Cc3ccccc3)C2)N1CC1CC1 (stereo unspecified) | -3.05% | -
O=C(c1ccc[nH]1)N1CCc2c(cccc2S(=O)(=O)N2CCOCC2)C1 | -1.166% | 24.49%
[H][C@]12CCC[C@@]1(COCC1CC1)CN(S(=O)(=O)N(C)C)C2 | -1.957% | -
c1ccc(Cc2nnc(CN3CCCC(Cn4cncn4)C3)o2)cc1 (stereo unspecified) | 9.468% | 8.333%

For reference, 6 entries once more:

{"compound": "Fc1cnc(N2CCCC3(CCN(Cc4cccs4)C3)C2)nc1.O=C(O)C(F)(F)F.O=C(O)C(F)(F)F", "stereo": "stereo unspecified", "Toxoplasma": -7.824}
{"compound": "CCn1cnnc1CNC(=O)N1CCCCCC1", "Toxoplasma": -3.138, "LiHisRS": 11.5}
{"compound": "COCC(=O)NCc1cccc(OCCN(C)C2CCOCC2)c1", "Toxoplasma": -2.402, "LiHisRS": 17.81}
{"compound": "CCOCC(=O)N1CCC(Oc2ccc(C(F)(F)F)cn2)CC1", "Toxoplasma": -1.441, "LiHisRS": 12.62}
{"compound": "O=C(c1ncoc1C1CCCO1)N1CCCC2(CCCCC2)C1", "stereo": "stereo unspecified", "Toxoplasma": 1.426, "LiHisRS": 25.71}
{"compound": "COCCN(C)c1ccc(NCc2cscn2)nc1", "Toxoplasma": 1.011, "LiHisRS": 42.86}